These are yes or no findings as the source states them, for the method shown. Some results given as binding are weak or reduced against the parent protein; the word gives no strength.

This test has as its target PAF53 (human) (UniProt Q9GZS1). In words: cryo-EM structure; hPol I elongation complex in the post-translocation state (EC^post) on a DNA-RNA scaffold, 2.8 A; peripheral subunits (RPA43, PAF53, PAF49) from a glutaraldehyde-crosslinked EC^post sample, 3.89 A; EC^pre of almost identical overall fold; both purified.

On to PAF49 (from UniProt O15446 1-510), for which the binding entry is “binds”.
Regarding RPA12 (from UniProt Q9P1U0 1-126), the binding result was “binds”.

The record behind these values is PMC8528822.
